Experimental data as given in article doi:10.1101/2025.08.07.669073 (bioRxiv, 2025).
No constants are given. Whether binding was seen depends on the method and setting. Binding seen in cells or lysates may run through a third protein. Some results given as binding are weak or reduced against the parent protein; the word gives no strength. For part of these data: Sequences can lack the tags named with a protein. Values belong to the molecule of their own block, whether it stands above or below them.

Protein sequences, listed by entry. Tags and fused reporters are not part of them.
UniProt Q9HD20: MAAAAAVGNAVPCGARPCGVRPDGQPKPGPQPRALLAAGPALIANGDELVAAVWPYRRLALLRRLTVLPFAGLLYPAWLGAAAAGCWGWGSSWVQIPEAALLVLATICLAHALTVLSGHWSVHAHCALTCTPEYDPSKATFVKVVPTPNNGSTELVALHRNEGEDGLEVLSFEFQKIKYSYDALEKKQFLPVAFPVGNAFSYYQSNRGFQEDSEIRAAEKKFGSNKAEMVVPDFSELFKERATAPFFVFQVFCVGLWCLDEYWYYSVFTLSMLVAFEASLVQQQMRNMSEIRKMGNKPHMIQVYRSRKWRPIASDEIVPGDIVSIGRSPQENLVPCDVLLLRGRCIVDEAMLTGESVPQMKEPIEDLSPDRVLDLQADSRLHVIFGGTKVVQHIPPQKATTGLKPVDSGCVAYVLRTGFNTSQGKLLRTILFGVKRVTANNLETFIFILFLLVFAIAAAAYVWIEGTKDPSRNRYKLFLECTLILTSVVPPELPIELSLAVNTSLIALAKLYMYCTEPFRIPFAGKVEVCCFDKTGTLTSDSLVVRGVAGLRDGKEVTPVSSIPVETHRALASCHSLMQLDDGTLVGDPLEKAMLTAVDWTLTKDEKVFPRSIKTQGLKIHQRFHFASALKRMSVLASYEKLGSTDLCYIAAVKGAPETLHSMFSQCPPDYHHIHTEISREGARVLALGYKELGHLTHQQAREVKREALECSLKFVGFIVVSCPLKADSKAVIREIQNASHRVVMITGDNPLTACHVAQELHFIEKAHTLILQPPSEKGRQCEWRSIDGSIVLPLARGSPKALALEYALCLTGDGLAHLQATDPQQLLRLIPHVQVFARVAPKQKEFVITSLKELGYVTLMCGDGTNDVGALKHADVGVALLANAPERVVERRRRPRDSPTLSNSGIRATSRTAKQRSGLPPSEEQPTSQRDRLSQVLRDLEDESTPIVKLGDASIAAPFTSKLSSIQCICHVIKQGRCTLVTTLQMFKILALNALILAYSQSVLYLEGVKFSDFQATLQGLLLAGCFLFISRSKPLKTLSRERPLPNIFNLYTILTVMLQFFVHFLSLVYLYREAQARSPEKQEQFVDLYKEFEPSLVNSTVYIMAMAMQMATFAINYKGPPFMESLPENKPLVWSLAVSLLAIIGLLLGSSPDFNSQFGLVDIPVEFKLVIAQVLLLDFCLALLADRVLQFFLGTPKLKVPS

How the values were obtained:
Experiment in all cases: co-IP
[1] = target: T1, human EMC7 (wt), transfected, tagged (human) (UniProt Q9NPA0)
T1 sequence: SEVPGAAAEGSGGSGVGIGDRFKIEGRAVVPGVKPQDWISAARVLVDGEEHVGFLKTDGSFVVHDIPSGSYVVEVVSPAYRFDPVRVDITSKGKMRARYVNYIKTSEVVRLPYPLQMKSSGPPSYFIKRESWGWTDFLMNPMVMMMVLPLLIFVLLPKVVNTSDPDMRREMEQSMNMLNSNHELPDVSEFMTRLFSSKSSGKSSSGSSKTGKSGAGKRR

[2] = target: T2, human EMC7 lacking the entire TMD and C-terminal region (Δ159-242) (human) (UniProt Q9NPA0)
T2 sequence: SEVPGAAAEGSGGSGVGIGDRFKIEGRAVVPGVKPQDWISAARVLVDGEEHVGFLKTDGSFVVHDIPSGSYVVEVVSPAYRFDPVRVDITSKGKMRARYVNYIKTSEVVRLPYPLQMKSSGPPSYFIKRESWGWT

[3] = target: T3, yeast Emc5 with C-terminal GFP, endogenous locus (S. cerevisiae) (UniProt P40540)
T3 sequence: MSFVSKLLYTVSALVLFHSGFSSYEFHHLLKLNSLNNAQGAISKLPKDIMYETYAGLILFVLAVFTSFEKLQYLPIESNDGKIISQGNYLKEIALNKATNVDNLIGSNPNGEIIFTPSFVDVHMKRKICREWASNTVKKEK

- binding [1]: binds
- binding [2]: no binding
Molecule: ATP13A1, endogenous, HEK293T (from UniProt Q9HD20 1-1204)

- binding [3]: binds
B1: yeast Emc10, subunit in the recombinant EMC:Spf1 complex (natural protein)
chain: ADILQLSYSDDAKDAIPLGTFEIDSTSDGNVTVTTVNIQDVEVSGEYCLNAQIEGKLDMPCFSYMKLRTPLKYDLIVDVDEDNEVKQVSLSYDETNDAITATVRYPEAGPTAPVTKLKKKTKTYADKKASKNKDGSTAQFEEDEEVKEVSWFQKNWKMLLLGLLIYNFVAGSAKKQQQGGAGADQKTE
